Experimental data published in the supplement of paper PMC10849652.
This is one part of the list.

Sequences of proteins named here, by UniProt entry; tags and fusion partners are left off. A change or cut given only in a name is not applied to a line headed by its entry.
UniProt P60953, whole entry, looked up: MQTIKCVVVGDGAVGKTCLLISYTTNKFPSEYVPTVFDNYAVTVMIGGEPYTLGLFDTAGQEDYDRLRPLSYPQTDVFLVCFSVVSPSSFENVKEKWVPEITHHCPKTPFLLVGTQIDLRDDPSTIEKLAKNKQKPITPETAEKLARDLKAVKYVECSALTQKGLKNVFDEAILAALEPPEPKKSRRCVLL
UniProt P08174: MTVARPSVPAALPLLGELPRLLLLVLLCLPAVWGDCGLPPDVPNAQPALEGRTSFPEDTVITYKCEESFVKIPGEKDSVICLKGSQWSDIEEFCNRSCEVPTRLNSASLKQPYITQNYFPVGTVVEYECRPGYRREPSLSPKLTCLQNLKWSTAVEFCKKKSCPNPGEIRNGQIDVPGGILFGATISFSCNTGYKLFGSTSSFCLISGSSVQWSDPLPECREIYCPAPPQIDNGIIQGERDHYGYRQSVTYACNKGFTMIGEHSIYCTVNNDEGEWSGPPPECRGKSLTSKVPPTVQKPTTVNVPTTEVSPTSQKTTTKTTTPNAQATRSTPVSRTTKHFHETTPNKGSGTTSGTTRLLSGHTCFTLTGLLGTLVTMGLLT
UniProt Q8N163, whole entry, looked up: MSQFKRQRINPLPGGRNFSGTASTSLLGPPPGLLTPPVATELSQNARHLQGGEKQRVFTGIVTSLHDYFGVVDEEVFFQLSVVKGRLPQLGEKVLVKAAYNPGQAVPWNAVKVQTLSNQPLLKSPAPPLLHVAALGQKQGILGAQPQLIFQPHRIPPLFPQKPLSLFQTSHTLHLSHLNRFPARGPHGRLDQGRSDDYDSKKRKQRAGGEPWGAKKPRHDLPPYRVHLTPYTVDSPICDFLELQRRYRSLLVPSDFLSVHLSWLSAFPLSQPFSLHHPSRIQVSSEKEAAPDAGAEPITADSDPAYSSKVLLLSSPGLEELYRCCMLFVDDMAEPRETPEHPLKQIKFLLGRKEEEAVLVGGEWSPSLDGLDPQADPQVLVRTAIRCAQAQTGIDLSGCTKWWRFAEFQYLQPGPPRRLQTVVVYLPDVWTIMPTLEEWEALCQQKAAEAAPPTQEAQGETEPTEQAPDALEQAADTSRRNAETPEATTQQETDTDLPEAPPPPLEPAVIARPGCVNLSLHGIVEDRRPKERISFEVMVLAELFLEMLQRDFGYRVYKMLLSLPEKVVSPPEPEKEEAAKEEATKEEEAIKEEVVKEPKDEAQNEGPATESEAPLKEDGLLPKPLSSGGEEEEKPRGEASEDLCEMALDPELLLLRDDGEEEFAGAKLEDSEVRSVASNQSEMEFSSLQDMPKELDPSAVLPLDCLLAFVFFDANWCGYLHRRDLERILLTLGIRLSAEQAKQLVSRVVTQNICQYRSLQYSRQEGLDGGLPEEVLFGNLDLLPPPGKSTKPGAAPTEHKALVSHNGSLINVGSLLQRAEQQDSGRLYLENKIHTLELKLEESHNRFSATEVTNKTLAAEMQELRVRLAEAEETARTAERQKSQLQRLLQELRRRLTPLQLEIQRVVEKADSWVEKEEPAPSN
UniProt Q8N4T8: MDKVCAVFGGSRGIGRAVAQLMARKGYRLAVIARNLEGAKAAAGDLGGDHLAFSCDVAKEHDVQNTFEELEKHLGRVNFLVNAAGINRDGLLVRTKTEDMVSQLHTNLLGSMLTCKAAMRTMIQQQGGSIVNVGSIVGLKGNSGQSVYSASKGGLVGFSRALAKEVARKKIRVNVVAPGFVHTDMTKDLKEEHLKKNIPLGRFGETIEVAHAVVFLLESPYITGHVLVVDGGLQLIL
UniProt P08962, whole entry, looked up: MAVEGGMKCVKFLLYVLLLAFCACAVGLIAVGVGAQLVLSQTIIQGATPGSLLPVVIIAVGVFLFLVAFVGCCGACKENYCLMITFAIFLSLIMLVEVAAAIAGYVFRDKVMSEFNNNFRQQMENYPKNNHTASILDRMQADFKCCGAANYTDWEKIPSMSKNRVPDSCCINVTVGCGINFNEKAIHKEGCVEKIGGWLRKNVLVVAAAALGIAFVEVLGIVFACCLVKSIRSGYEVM
UniProt P48509: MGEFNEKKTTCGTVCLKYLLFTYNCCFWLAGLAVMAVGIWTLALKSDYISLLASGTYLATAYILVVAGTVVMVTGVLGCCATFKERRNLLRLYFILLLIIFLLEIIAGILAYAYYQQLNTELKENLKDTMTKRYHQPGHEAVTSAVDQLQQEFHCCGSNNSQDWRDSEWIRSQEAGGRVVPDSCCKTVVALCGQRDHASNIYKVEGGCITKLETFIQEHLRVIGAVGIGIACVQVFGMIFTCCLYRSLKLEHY
UniProt P14635, whole entry, looked up: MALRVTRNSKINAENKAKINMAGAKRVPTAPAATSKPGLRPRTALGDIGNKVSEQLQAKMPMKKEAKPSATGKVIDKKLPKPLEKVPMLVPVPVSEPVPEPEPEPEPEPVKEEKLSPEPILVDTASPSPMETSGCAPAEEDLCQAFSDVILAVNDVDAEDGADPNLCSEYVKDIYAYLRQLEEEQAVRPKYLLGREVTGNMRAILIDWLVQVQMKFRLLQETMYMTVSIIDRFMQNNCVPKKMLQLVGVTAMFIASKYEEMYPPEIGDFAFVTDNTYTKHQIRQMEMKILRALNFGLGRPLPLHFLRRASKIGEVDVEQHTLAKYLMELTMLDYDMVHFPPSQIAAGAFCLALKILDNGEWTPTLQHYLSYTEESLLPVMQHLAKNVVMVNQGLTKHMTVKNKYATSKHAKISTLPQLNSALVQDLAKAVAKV
UniProt Q9Y3X0: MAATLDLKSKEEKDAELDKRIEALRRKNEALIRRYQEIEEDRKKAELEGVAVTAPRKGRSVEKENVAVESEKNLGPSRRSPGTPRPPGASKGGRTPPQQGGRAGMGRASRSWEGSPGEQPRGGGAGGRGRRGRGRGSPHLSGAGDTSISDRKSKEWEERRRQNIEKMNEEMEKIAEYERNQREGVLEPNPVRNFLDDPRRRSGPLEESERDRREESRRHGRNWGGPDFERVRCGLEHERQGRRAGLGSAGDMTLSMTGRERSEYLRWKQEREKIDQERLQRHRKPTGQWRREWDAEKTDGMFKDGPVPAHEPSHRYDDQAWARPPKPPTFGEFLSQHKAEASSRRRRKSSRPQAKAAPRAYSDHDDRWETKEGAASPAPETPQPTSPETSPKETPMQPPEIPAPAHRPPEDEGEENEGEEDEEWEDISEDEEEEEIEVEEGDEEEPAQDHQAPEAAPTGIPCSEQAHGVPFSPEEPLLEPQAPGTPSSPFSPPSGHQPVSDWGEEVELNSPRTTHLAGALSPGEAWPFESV
UniProt Q4VC31: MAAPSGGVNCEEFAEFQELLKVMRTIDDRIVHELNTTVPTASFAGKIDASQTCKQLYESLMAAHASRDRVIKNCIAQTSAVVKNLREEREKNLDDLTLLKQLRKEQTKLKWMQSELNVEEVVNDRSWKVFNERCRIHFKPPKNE
UniProt P60033: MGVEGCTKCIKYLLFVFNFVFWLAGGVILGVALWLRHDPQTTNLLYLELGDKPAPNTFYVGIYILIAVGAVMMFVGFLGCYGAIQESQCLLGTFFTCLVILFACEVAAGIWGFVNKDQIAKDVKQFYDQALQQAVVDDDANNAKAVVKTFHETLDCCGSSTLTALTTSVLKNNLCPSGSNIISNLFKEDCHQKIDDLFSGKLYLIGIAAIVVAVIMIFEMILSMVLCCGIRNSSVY
UniProt P40227, whole entry, looked up: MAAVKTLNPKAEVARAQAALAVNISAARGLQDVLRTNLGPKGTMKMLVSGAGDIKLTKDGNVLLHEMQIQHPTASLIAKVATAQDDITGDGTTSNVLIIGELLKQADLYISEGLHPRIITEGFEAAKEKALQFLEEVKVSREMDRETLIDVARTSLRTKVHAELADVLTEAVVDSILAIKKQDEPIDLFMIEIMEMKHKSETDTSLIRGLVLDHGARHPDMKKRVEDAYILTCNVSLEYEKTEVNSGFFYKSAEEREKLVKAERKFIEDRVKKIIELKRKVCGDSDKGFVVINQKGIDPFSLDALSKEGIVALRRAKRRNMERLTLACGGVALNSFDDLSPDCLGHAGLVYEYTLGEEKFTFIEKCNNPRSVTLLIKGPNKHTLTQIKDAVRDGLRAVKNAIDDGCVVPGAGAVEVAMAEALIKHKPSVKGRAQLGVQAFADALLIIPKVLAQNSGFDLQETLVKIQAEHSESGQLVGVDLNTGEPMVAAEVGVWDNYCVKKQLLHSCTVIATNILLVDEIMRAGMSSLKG
UniProt Q8N4J0: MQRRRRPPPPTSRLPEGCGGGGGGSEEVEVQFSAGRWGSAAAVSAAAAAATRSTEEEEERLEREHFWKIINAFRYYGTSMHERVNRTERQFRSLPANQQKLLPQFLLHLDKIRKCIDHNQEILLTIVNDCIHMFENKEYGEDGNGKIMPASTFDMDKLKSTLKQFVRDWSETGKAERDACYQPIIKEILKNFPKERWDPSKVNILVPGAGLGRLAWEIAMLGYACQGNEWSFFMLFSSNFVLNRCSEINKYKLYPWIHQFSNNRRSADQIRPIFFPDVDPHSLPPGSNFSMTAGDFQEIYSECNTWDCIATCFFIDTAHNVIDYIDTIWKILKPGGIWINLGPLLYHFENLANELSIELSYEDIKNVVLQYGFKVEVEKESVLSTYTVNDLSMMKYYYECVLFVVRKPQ
UniProt Q8WUD4: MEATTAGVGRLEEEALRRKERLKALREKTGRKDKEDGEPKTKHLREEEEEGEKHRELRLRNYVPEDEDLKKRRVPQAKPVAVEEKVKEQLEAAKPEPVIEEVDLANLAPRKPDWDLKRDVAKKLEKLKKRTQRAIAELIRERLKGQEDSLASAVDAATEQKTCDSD
UniProt P51636: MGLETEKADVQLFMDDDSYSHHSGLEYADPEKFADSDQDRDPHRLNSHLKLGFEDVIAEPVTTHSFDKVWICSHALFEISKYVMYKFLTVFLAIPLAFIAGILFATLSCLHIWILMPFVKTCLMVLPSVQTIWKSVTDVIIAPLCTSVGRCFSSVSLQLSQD
UniProt O60563, whole entry, looked up: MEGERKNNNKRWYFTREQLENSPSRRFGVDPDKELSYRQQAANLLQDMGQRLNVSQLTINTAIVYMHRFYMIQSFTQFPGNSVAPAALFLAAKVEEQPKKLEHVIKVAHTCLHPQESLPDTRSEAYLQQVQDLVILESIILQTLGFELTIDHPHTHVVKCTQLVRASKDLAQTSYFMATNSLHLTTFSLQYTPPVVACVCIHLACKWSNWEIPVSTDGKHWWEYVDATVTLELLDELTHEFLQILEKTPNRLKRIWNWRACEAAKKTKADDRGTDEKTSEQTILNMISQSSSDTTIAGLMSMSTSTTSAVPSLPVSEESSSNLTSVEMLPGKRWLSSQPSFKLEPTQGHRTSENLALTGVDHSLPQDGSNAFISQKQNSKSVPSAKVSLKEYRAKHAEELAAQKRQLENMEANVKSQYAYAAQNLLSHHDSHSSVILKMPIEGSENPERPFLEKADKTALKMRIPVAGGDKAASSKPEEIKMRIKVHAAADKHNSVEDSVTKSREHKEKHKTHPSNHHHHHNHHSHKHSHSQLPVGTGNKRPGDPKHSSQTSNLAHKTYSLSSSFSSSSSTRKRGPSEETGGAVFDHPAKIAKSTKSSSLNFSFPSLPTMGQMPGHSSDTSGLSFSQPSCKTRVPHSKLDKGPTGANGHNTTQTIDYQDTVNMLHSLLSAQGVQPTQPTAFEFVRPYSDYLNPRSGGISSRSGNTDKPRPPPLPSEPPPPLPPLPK
UniProt P24863: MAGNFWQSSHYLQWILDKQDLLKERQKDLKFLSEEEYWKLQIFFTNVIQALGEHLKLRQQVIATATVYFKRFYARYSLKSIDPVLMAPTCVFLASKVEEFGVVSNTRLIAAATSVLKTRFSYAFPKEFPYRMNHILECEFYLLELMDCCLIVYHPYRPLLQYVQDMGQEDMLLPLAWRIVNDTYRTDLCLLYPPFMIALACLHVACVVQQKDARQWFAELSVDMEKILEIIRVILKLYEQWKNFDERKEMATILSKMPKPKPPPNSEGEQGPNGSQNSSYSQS
UniProt Q86X55: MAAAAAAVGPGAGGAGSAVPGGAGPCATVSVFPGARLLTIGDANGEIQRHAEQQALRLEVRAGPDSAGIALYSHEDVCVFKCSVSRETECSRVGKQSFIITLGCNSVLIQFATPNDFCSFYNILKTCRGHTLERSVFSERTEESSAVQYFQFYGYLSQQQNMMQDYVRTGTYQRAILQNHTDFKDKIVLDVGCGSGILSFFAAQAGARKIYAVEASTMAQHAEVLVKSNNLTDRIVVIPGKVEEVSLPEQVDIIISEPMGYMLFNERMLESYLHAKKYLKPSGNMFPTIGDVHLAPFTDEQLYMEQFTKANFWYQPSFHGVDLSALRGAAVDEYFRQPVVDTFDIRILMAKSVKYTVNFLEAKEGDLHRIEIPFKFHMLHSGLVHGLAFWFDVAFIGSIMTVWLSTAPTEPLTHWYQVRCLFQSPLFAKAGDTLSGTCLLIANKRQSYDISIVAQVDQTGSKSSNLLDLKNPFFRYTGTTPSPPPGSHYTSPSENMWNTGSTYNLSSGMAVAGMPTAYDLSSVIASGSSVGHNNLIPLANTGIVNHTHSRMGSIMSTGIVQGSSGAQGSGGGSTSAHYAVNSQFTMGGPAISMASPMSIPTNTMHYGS

Assays:
Experiment in all cases: log2 fold change, soluble protein after heating vs DMSO (PISA); higher = thermal stabilisation; K562 cells, 10 uM, 30 min; active = over 0.2 and 3.5 SD of the protein, either way, in both replicates (recomputed)
bafetinib = compound: Cc1ccc(NC(=O)c2ccc(CN3CC[C@H](N(C)C)C3)c(C(F)(F)F)c2)cc1Nc1nccc(-c2cncnc2)n1 [bafetinib]
Summary of the method: (§1)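 K562 cells (2×10^6 cells/mL) were treated with 10 μM compound for 30 min, and aliquots were heated for 3 min over 48°C-58°C. Pooled aliquots were extracted in PBS with 0.5% NP-40 at 4°C, and the supernatant after 21,000xg for 90 min was measured by TMTpro 16plex LC-MS/MS with channel sums equalised. Reported thermal stability, relative to control samples and from duplicates, is a log2 fold change.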

[1] = compound: Cc1cccc(CC(=O)N2CCc3c2ccc(-c2cn(C)c4ncnc(N)c24)c3F)n1
Summary of the method: as §1

nilotinib = compound: Cc1cn(-c2cc(NC(=O)c3ccc(C)c(Nc4nccc(-c5cccnc5)n4)c3)cc(C(F)(F)F)c2)cn1 [nilotinib]
Summary of the method: as §1

[2] = compound: Cc1nc(Nc2n[nH]c3c2CN(C(=O)N[C@H](CN(C)C)c2ccccc2)C3(C)C)c2sccc2n1
Summary of the method: as §1

dasatinib = compound: Cc1nc(Nc2ncc(C(=O)Nc3c(C)cccc3Cl)s2)cc(N2CCN(CCO)CC2)n1 [dasatinib]
Summary of the method: as §1

[3] = compound: Cc1ncc(-c2ccnc(Nc3ccc(S(C)(=O)=O)cc3)n2)n1C(C)C
Summary of the method: as §1

[4] = compound: Cn1cc(-c2ccc3c(c2)CCN3C(=O)Cc2cccc(C(F)(F)F)c2)c2c(N)ncnc21
Summary of the method: as §1

[5] = compound: Cn1cc(-c2ccc3nnc(C(F)(F)c4ccc5ncccc5c4)n3n2)cn1
Summary of the method: as §1

tipifarnib = compound: Cn1cncc1[C@@](N)(c1ccc(Cl)cc1)c1ccc2c(c1)c(-c1cccc(Cl)c1)cc(=O)n2C [tipifarnib]
Summary of the method: as §1

mubritinib = compound: FC(F)(F)c1ccc(/C=C/c2nc(COc3ccc(CCCCn4ccnn4)cc3)co2)cc1 [mubritinib]
Summary of the method: as §1

Measured: log2 fold change

CCDC124 (UniProt Q96CT7)
inactive: bafetinib 0.053 | [1] -0.026 | nilotinib -0.006 | [2] 0.031 | dasatinib 0.067 | [3] -0.004 | [4] -0.046 | [5] -0.036 | tipifarnib 0.019 | mubritinib 0.006

CDC42 isoform 1 (UniProt P60953)
inactive: bafetinib 0.009 | [1] -0.075 | nilotinib 0.042 | [2] 0.002 | dasatinib 0.116 | [3] -0.01 | [4] -0.03 | [5] 0.091 | tipifarnib 0.022 | mubritinib 0.028

CD55 isoform 7 (UniProt P08174)
inactive: bafetinib 0.168 | [1] -0.06 | nilotinib 0.086 | [2] 0.027 | dasatinib 0.096 | [3] -0.026 | [4] -0.051 | [5] -0.012 | tipifarnib -0.027 | mubritinib -0.075

CCAR2 isoform 2 (UniProt Q8N163)
inactive: bafetinib 0.007 | [1] 0.01 | nilotinib -0.053 | [2] -0.023 | dasatinib -0.176 | [3] -0.157 | [4] -0.009 | [5] 0.042 | tipifarnib 0.011 | mubritinib 0.031

CCAR1 (UniProt Q8IX12)
inactive: bafetinib 0.036 | [1] 0.036 | nilotinib -0.055 | [2] -0.033 | dasatinib -0.112 | [3] -0.095 | [4] 0.079 | [5] 0.019 | tipifarnib -0.091 | mubritinib 0.122

CCDC175 (UniProt P0C221)
inactive: bafetinib -0.078 | [1] 0.097 | nilotinib 0.104 | [2] -0.006 | dasatinib -0.024 | [3] -0.027 | [4] -0.094 | [5] -0.026 | tipifarnib -0.065 | mubritinib 0.076

CCDC174 (UniProt Q6PII3)
inactive: bafetinib -0.092 | [1] -0.016 | nilotinib -0.001 | [2] -0.008 | dasatinib 0.007 | [3] 0 | [4] -0.07 | [5] -0.048 | tipifarnib 0.058 | mubritinib -0.002

CBR4 (UniProt Q8N4T8)
inactive: bafetinib -0.072 | [1] -0.098 | nilotinib 0.017 | [2] 0.036 | dasatinib -0.015 | [3] -0.042 | [4] 0.02 | [5] 0 | tipifarnib -0.002 | mubritinib -0.028

CD63 (UniProt P08962)
inactive: bafetinib -0.069 | [1] -0.059 | nilotinib -0.023 | [2] 0.074 | dasatinib 0.021 | [3] 0.002 | [4] -0.047 | [5] 0.002 | tipifarnib 0.043 | mubritinib -0.003

CD151 (UniProt P48509)
inactive: bafetinib 0.135 | [1] 0.015 | nilotinib -0.072 | [2] 0.157 | dasatinib 0.063 | [3] 0.019 | [4] 0.025 | [5] -0.002 | tipifarnib -0.076 | mubritinib -0.092

CBFA2T3 (UniProt O75081)
inactive: bafetinib 0.059 | [1] 0.029 | nilotinib 0.112 | [2] -0.032 | dasatinib -0.058 | [3] -0.013 | [4] -0.085 | [5] -0.074 | tipifarnib 0.117 | mubritinib -0.004

CD2AP (UniProt Q9Y5K6)
inactive: bafetinib -0.072 | [1] -0.028 | nilotinib 0.01 | [2] -0.038 | dasatinib -0.021 | [3] 0.004 | [4] -0.01 | [5] 0.011 | tipifarnib -0.002 | mubritinib 0.039

CCNB1 (UniProt P14635)
inactive: bafetinib -0.018 | [1] 0.009 | nilotinib 0.04 | [2] -0.156 | dasatinib 0.02 | [3] -0.025 | [4] 0.006 | [5] 0.003 | tipifarnib 0.02 | mubritinib 0.08

CCDC158 (UniProt Q5M9N0)
inactive: bafetinib 0.077 | [1] -0.08 | nilotinib -0.062 | [2] 0.101 | dasatinib 0.171 | [3] 0.062 | [4] -0.106 | [5] 0.009 | tipifarnib 0.019 | mubritinib -0.061

CAT (UniProt P04040)
inactive: bafetinib -0.04 | [1] -0.017 | nilotinib -0.006 | [2] 0.01 | dasatinib 0.068 | [3] 0 | [4] 0.025 | [5] 0.041 | tipifarnib -0.024 | mubritinib 0.037

Pulled one by one from the entries so far (2):
CBFA2T3 (UniProt O75081)
inactive: bafetinib 0.059 | [1] 0.029 | nilotinib 0.112 | [2] -0.032 | dasatinib -0.058 | [3] -0.013 | [4] -0.085 | [5] -0.074 | tipifarnib 0.117 | mubritinib -0.004

CD63 (UniProt P08962)
inactive: bafetinib -0.069 | [1] -0.059 | nilotinib -0.023 | [2] 0.074 | dasatinib 0.021 | [3] 0.002 | [4] -0.047 | [5] 0.002 | tipifarnib 0.043 | mubritinib -0.003

Next part.

CCDC9 (UniProt Q9Y3X0)
inactive: bafetinib -0.011 | [1] -0.032 | nilotinib 0.002 | [2] 0.117 | dasatinib 0.072 | [3] 0.028 | [4] -0.046 | [5] -0.05 | tipifarnib -0.004 | mubritinib -0.038

CCDC58 (UniProt Q4VC31)
inactive: bafetinib -0.098 | [1] -0.021 | nilotinib -0.005 | [2] 0.031 | dasatinib 0.029 | [3] 0.01 | [4] 0.017 | [5] 0.047 | tipifarnib -0.002 | mubritinib -0.037

CCT4 (UniProt P50991)
inactive: bafetinib 0.016 | [1] 0.057 | nilotinib -0.053 | [2] 0.017 | dasatinib -0.005 | [3] -0.005 | [4] -0.003 | [5] 0.003 | tipifarnib -0.042 | mubritinib 0.016

CD81 (UniProt P60033)
inactive: bafetinib 0.089 | [1] -0.026 | nilotinib 0.051 | [2] 0.016 | dasatinib 0.079 | [3] -0.015 | [4] 0.108 | [5] 0.131 | tipifarnib 0.041 | mubritinib 0.05

CBL (UniProt P22681)
inactive: bafetinib 0.009 | [1] 0.018 | nilotinib 0.063 | [2] -0.027 | dasatinib 0.008 | [3] 0.014 | [4] 0.054 | [5] -0.009 | tipifarnib -0.022 | mubritinib 0.048

CCT6A (UniProt P40227)
inactive: bafetinib 0.007 | [1] 0.008 | nilotinib -0.042 | [2] 0.033 | dasatinib -0.004 | [3] 0.007 | [4] 0.009 | [5] 0.002 | tipifarnib 0.004 | mubritinib 0.004

CARNMT1 (UniProt Q8N4J0)
inactive: bafetinib -0.044 | [1] 0.1 | nilotinib -0.013 | [2] 0.012 | dasatinib -0.104 | [3] 0.077 | [4] 0.017 | [5] 0.027 | tipifarnib -0.008 | mubritinib -0.01

CCDC86 (UniProt Q9H6F5)
inactive: bafetinib 0.334 | [1] 0.028 | nilotinib 0.035 | [2] 0.067 | dasatinib 0.19 | [3] 0.02 | [4] -0.26 | [5] -0.107 | tipifarnib 0.136 | mubritinib -0.12

CCT8 (UniProt P50990)
inactive: bafetinib 0.009 | [1] 0.007 | nilotinib -0.052 | [2] 0.013 | dasatinib -0.003 | [3] 0.01 | [4] -0.001 | [5] 0.006 | tipifarnib 0.019 | mubritinib 0.013

CCDC12 (UniProt Q8WUD4)
inactive: bafetinib -0.026 | [1] -0.059 | nilotinib -0.007 | [2] 0 | dasatinib 0.078 | [3] 0.029 | [4] -0.059 | [5] -0.012 | tipifarnib -0.008 | mubritinib 0.042

CCNH (UniProt P51946)
inactive: bafetinib -0.064 | [1] -0.01 | nilotinib -0.008 | [2] 0.113 | dasatinib 0.023 | [3] -0.056 | [4] -0.005 | [5] 0.005 | tipifarnib 0.051 | mubritinib 0.08

CAV2 (UniProt P51636)
active: bafetinib -1.25
inactive: [1] -0.054 | nilotinib 0.221 | [2] -0.082 | dasatinib 0.033 | [3] 0.008 | tipifarnib 0.136 | mubritinib 0.066

CCNT1 (UniProt O60563)
inactive: bafetinib 0.062 | [1] 0.036 | nilotinib 0.027 | [2] -0.272 | dasatinib -0.016 | [3] -0.301 | [4] -0.051 | [5] -0.122 | tipifarnib 0.142 | mubritinib -0.093

CCNC (UniProt P24863)
inactive: bafetinib 0.031 | [1] 0.055 | dasatinib -0.074 | [4] -0.091 | [5] -0.015 | mubritinib -0.016

CD99L2 isoform 5 (UniProt Q8TCZ2)
inactive: bafetinib -0.027 | [1] -0.002 | nilotinib 0.059 | [2] -0.15 | dasatinib -0.086 | [3] 0.045 | [4] 0.106 | tipifarnib 0.072 | mubritinib -0.048

CARM1 (UniProt Q86X55)
inactive: bafetinib -0.042 | [1] -0.005 | nilotinib -0.014 | [2] 0.004 | dasatinib 0.015 | [3] -0.006 | [4] 0.021 | [5] 0.031 | tipifarnib -0.023 | mubritinib 0.045
